# Key:
# [1] = tested on: general motor activity of mice; experiment: General locomotor activity of mice (Stoelting electronic activity monitor); type: in vivo, Balb/c mice; conditions: graded 0-5
# Procedure: The effect of intraperitoneal (i.p.) injections of test compounds on the general motor activity of mice during a 60-min period was determined in a Stoelting electronic activity monitor. Dose-response curves were obtained from which the half-maximally effective values were calculated and the results are shown in Table V.
# The compounds were dissolved in 25% (vols.) propylene glycol in water and injected i.p. into Balb/c mice (18-24 g). Dose-response measurements were obtained for 6 animals per dose or time point. Activity was monitored for 60 min using a Stoelting Electronic Activity Monitor (EAM) apparatus to assess the general motor activity of the animals.
# The general locomotor activity of mice was measured in the Stolting activity monitor apparatus during 60 min after an intraperitoneal (i.p.) injection of a test compound.
# GABA "receptors" = experiment: Inhibition of [3H]GABA binding to synaptic membranes from rat cerebellum; conditions: [3H]GABA (15 nM); synaptic membrane preparations from rat cerebellum
# Procedure: Once such a compound enters the CNS, its pharmacological activity could be due to the properties of the intact molecule or to its capacity to release GABA after hydrolysis. To test for the possibility that the intact molecules might be active, the capacity of Compounds 5 and 6 to inhibit the binding of [^3H]GABA to GABA "receptors" using membrane preparations of rat cerebellum were measured. IC50 values were determined by fitting data to linearized transformations, based on including at least two concentrations of antagonists above and below the IC50, with at least triplicate replication per concentration.
# CAI pyramidal cells = type: cell-based, Sprague-Dawley rats
# Procedure: Transverse slices of hippocampus (350-375 µm thick) were prepared from Sprague-Dawley rats (200-300 g) and transferred onto a nylon net fixed over a 1.5 ml superfusion chamber. The slices were maintained at 32-33°C in a humidified atmosphere of 95%/5% 02/C02. The standard medium consisted of (in mM): NaCl, 125; KCI, 3.5; CaC12,2; MgS04, 1.5; NaH2PO4, 1; NaHC03, 24; and glucose, 10. Low chloride medium was prepared by substituting sodium isethionate for sodium chloride.
# Extracellular potentials were recorded with NaCI-fitted micropipettes, and stimulus pulses were applied through bipolar platinum wire electrodes. The various drugs were dissolved in fresh medium (without glucose and phosphate) and applied to the surface of the tissue by pressure ejection from a micropipette, Sakai, Swartz and Woody, (1979).
# The inhibitory effectiveness of various compounds was investigated by measuring their ability to suppress the extracellular population spike recorded from the hippocampal CAI pyramidal layer and elicited by stimulation of stratum radiatum axons. The amplitude of this monosynaptic population spike is essentially proportional to the number of pyramidal cells discharging in response to a stimulus volley, Andersen, Bliss and Skrede, (1971).
# The various compounds were applied as droplets to the pyramidal layer approximately 75 µm from the recording electrode. […]
smiles,measurement,setting,value
"NCCCC(=O)O [GABA, gamma-aminobutyric acid]",In Vivo Inhibition of General Motor Activity,[1],0
same,IC50,"GABA ""receptors""",70 nM
same,inhibition of the evoked population spike,CAI pyramidal cells,"rapid, dose-dependent inhibition"

# Source: patent publication EP0133795B1, “Gaba esters and gaba analogue esters” (THE McLEAN HOSPITAL CORPORATION, priority 1983, dated 1985)
